Here are results for 58 compounds from PubChem BioAssay AID434947 (Broad Institute, 2010).

The campaign covered roughly 2,200 compounds. About 15 (0.7%) were called active.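 The calls were made as follows: active = fitted half-maximal concentration for loss of luminescence signal no more than a set limit of log units above the top tested concentration; inconclusive = flat fit with 30 to 70% signal loss, or invalid fit; inactive = half-maximal concentration above that set limit.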 The list shows a part of the results.

The experiment can be described thus: inhibitors of ADP-Glo detection reagents, dose response, artefact control for GSK3beta inhibitor project, biochemical, luminescence, cell-free, homogeneous (AID 434947).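 Also: kinase-free counter screen of ADP-Glo detection reagents for GSK3beta hits.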 To be noted: 5 uM ADP.
Take `Cc1ccccc1C1=NC(C(F)(F)F)(C(F)(F)F)c2c(n(C)c(=O)n(C)c2=O)N1`: the EC50 was inactive: > 30 µM.

On to `CN(Cc1c(C(=O)N/N=C/c2cccc(O)c2)nnn1-c1nonc1N)C1CCCCC1`, for which the EC50 is inactive: > 30 µM.

`COc1cccc(Nc2ncc(C#N)c(N)n2)c1`: the EC50 is inactive: > 10 µM.

With `COc1cccc(CNC(=O)C2CCN(S(=O)(=O)c3ccc(-n4cnnn4)cc3)CC2)c1`, the EC50 is inactive: > 30 µM.

In the case of `CCCn1nc(NC(=O)c2cccs2)c2cc3cc(OC)ccc3nc21`, the EC50 was inactive: > 30 µM.

Consider `CCCN(CCC)Cc1c(C(=O)N/N=C/c2ccoc2)nnn1-c1nonc1N`, for which the EC50 is inactive: > 30 µM.

Regarding `CCCOC(=O)c1ccc(O)cc1`, the EC50 is inactive: > 30 µM.

Turning to `O=C(NNC(=O)C1CC1)c1cc2cc3ccccc3nc2s1`, the EC50 was inactive: > 30 µM.

For `Cc1ccc(-c2oc3ccccc3c(=O)c2O)cc1`, the EC50 was inactive: > 30 µM.

With `CCOC(=O)c1cnc2ccc(OC)cc2c1Nc1ccc2c(c1)OCCO2`, the EC50 is inactive: > 30 µM.

Turning to `CC1(C)CC(=O)C=C(Nc2cccc(O)c2)C1`, the EC50 is inactive: > 30 µM.

Turning to `Cc1nn(CC(=O)NCCCN2CCCCC2)c(=O)c2cc(-c3ccccc3)nn12`, the EC50 is inactive: > 30 µM.

For `COC(=O)C(C)Sc1ccc2nnc(-c3ccc(F)cc3)n2n1` (stereo not drawn), the EC50 is inactive: > 30 µM.

Regarding `CCC(NC(=S)NC1CCCCC1)c1ccccc1` (stereo not drawn), the EC50 was inactive: > 30 µM.

With `Oc1ccccc1/C=N/Nc1nn[nH]n1`, the EC50 is inactive: > 30 µM.

On to `O=C(Nc1cccc(Cl)c1)c1ccc(NCCCN2CCOCC2)c([N+](=O)[O-])c1`, for which the EC50 is inactive: > 30 µM.

For `O=C(Nc1cccc2c1C(=O)NC2=O)c1ccccc1[N+](=O)[O-]`, the EC50 is inactive: > 30 µM.

Regarding `CC(O)c1cccc(NC2=CC(=O)CC(C)(C)C2)c1` (stereo not drawn), the EC50 was inactive: > 30 µM.

Regarding `Cc1cccc(NC(=O)C(C)n2cc([N+](=O)[O-])cn2)n1` (stereo not drawn), the EC50 is inactive: > 30 µM.

Consider `COc1cc(NC(=O)COC(=O)CCc2cc(OC)c(OC)c(OC)c2)cc(OC)c1`, for which the EC50 was inactive: > 30 µM.

Take `CCOc1ccccc1CNC(=O)CCn1ccc2cc(S(=O)(=O)N3CCCCC3)ccc21`: the EC50 was inactive: > 30 µM.

For `Fc1ccc(-c2nnc(SCc3cccnc3)o2)cc1`, the EC50 was inactive: > 30 µM.

As to `CN(Cc1ccccc1)Cc1nc2c([nH]1)c(=O)n(C)c(=O)n2C`, the EC50 is inactive: > 30 µM.

As for `C=CCNC(=O)c1onc(CSc2cccc(OC)c2)c1C(=O)NCC=C`, the EC50 was inactive: > 30 µM.

Consider `O=S(=O)(c1ccc(F)cc1)c1nc(-c2ccco2)oc1Nc1ccccc1`, for which the EC50 is inactive: > 30 µM.

As for `CC(C)N(C(=O)Cc1ccccc1[N+](=O)[O-])C(C)C`, the EC50 is inactive: > 30 µM.

As for `CCOC(=O)CSc1ccc2nnc(-c3ccccc3)n2n1`, the EC50 is inactive: > 30 µM.

For `Nc1nc(Nc2cccc(F)c2)nc(N2CCOCC2)c1[N+](=O)[O-]`, the EC50 was inactive: > 30 µM.

Regarding `CCc1nn(CC(=O)NCCCc2ccccc2)c(=O)c2cc3c(OC)cccc3n12`, the EC50 was inactive: > 30 µM.

In the case of `O=C(Nc1ccccc1)Nc1ccncc1`, the EC50 was inactive: > 30 µM.

In the case of `S=C1Nc2cc(Cl)ccc2Sc2ccccc21`, the EC50 is inactive: > 30 µM.

Turning to `COc1ccc(C2CC(=O)C3=C(C2)Nc2ncnn2C3c2ccccc2C)cc1` (stereo not drawn), the EC50 was inactive: > 30 µM.

Consider `CCC(=O)c1c(CC)c2n3c1CC[C@H]3CCC2`, for which the EC50 was inactive: > 30 µM.

`CC(C)=CCc1c(O)cc(O)c2c(=O)c3c(CC=C(C)C)c(O)ccc3oc12`: the EC50 was inactive: > 30 µM.

For the compound `O=c1cc(-c2ccccc2Cl)oc2c(Br)ccc(O)c12`, the EC50 was inactive: > 30 µM.

On to `COc1ccc(-c2nn(-c3ccccc3)cc2/C=N/NC(=O)c2ccc(Br)o2)cc1`, for which the EC50 was inactive: > 30 µM.

With `Nc1c(C(=O)c2ccccc2)sc(Nc2ccccc2)c1S(=O)(=O)c1ccccc1`, the EC50 is inactive: > 30 µM.

As for `Cc1ccc(C(=O)Nc2ccc(S(=O)(=O)NCc3ccco3)cc2)cc1`, the EC50 is inactive: > 30 µM.

With `Nc1nc(NCCOCCO)nc(NC2CCCCC2)c1[N+](=O)[O-]`, the EC50 is inactive: > 30 µM.

Consider `CCN1CCCC1CNC(=O)c1ccc2c(c1)NC(=O)/C(=C\c1ccc(OC)c(OC)c1)S2` (stereo not drawn), for which the EC50 is inactive: > 30 µM.

For `Cc1[nH]nc2c1C(c1cccs1)C1=C(CC(C)(C)CC1=O)N2` (stereo not drawn), the EC50 was inactive: > 30 µM.

For `COc1ccccc1Oc1coc2c(CN(C)C)c(O)ccc2c1=O`, the EC50 is inactive: > 30 µM.

Turning to `CCOc1ccccc1/C=N/NC(=O)c1nnn(-c2nonc2N)c1CN1CCC(C)CC1`, the EC50 was inactive: > 30 µM.

Take `Nc1nc(Nc2ccccc2)nc(N2CCOCC2)c1[N+](=O)[O-]`: the EC50 is inactive: > 30 µM.

In the case of `COCCn1c(SCC(=O)Nc2ccc(S(=O)(=O)N(C)C)cc2)nc2ccccc21`, the EC50 was inactive: > 30 µM.

With `COc1cccc(N(C(=O)CS(=O)CC(=O)Nc2ccc(F)cc2)C(C(=O)NC2CCCCC2)c2cccs2)c1` (stereo not drawn), the EC50 is inactive: > 30 µM.

`COCCN(CCOC)Cc1c(O)ccc2c1O/C(=C\c1ccco1)C2=O`: the EC50 is inactive: > 30 µM.

As for `O=C(O)c1ccccc1Nc1ccnc(Cl)n1`, the EC50 was inactive: > 30 µM.

On to `CCCCn1nc(NC(=O)COC)c2cc3cc(OC)ccc3nc21`, for which the EC50 is inactive: > 30 µM.

In the case of `COCCCNc1nc(N)c([N+](=O)[O-])c(Nc2ccccc2OC)n1`, the EC50 is inactive: > 30 µM.

Take `Cc1ncc(CN2CCCC(C(=O)Nc3ccc(-c4cccc(F)c4)cc3)C2)cn1` (stereo not drawn): the EC50 was inactive: > 30 µM.

Consider `CC(C(=O)Nc1nc2ccccc2s1)n1cc([N+](=O)[O-])cn1` (stereo not drawn), for which the EC50 was inactive: > 30 µM.

As to `CCOc1cccc(C(=O)Nc2cccc(-c3nc4ncccc4o3)c2C)c1`, the EC50 is inactive: > 30 µM.

For `COc1ccccc1Nc1nc(NCC(C)C)nc(N)c1[N+](=O)[O-]`, the EC50 is inactive: > 30 µM.

In the case of `COc1ccc(Nc2nc(N)c([N+](=O)[O-])c(N3CCOCC3)n2)cc1`, the EC50 is inactive: > 30 µM.

`COc1ccc2c(CC(=O)Nc3ncc(C)s3)coc2c1`: the EC50 is inactive: > 30 µM.

Turning to `CN1CCc2c(sc3c2c(=O)n(-c2ccccc2)c2n[nH]c(=S)n32)C1`, the EC50 is inactive: > 30 µM.

On to `CCOc1ccc2nc(N3CCC(C(=O)N4CCN(C5CCCCC5)CC4)CC3)sc2c1`, for which the EC50 was inactive: > 30 µM.
